Assay results as given in PubChem BioAssay AID651660 (Broad Institute, 2012).
“And” between values parts separate entries of the source, which are not always exact repeats. Identical values can stand only once. Hit rate of the full screen: of about 1,900 compounds, about 15 (0.8%) were called active.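 The calls were made as follows: active = every replicate shows at least 50% inhibition; inconclusive = mean inhibition at least 50% but some replicate below; inactive = the rest.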 The list shows a part of the results.

By UniProt entry, the sequences of proteins in these tests, tags left out. Where a name states a change or a piece, a line headed by the entry shows the natural chain unless it says otherwise.
UniProt P43351: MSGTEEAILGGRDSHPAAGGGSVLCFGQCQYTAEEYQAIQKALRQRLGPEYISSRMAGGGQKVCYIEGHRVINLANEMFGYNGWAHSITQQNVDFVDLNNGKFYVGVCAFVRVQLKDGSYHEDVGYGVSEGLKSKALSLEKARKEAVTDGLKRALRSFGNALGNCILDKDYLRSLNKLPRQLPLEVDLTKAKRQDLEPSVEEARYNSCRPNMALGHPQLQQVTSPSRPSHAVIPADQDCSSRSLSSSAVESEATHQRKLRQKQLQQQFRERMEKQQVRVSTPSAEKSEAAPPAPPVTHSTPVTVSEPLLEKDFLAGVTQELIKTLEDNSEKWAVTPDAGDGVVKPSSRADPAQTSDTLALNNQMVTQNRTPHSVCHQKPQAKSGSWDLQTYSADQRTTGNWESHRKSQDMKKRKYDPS

biological target: DNA repair protein RAD52 homolog (Homo sapiens) (UniProt P43351); test: RAD52 ssDNA annealing inhibitors, primary screen, biochemical, FRET, single point (AID 651660); conditions: Recombinant RAD52 ssDNA annealing, FRET fluorescence, 30 min; at 18.7 µM; active compounds read high;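 also: 0% = median of neutral control wells and 100% = median of positive control wells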

inhibition, inactive:
CC(=O)[C@@]1(O)CC[C@H]2[C@@H]3C[C@H](C)C4=CC(=O)CC[C@]4(C)[C@H]3CC[C@@]21C -0.875%, OCC1(CCOc2ccccc2)CCN(CCCn2cccn2)CC1 5.11%, Cn1c2ccc(CC(=O)O)cc2c2cc(CC(=O)O)ccc21 -173%, COc1cc(NC(=O)N[C@@H](Cc2ccccc2)C(=O)O)cc(OC)c1 -12%, NS(=O)(=O)c1cc2c(cc1Cl)NC(CSCc1ccccc1)=NS2(=O)=O -11.8%, CCNC(=O)c1sc2cc(C)ccc2c1Cl -3.45%, Cc1cc(NS(=O)(=O)c2ccc(N)cc2)no1 -13.7%, Cc1ccccc1NC(=O)c1c(C)cc(=O)oc1C -0.543%, O=C(CNC(=O)OCc1ccccc1)Oc1cc2oc(=O)cc(-c3ccccc3)c2cc1Cl -7.29%, Cc1ccc([N+](=O)[O-])cc1NC1OC(CO)C(O)C1O (stereo not drawn) 3.33%, CC1(C)Cc2nc3oc4c(NCc5ccccc5)ncnc4c3cc2CO1 0.368%, CCCC1O[C@@H]2C[C@H]3[C@@H]4CCC5=CC(=O)C=C[C@]5(C)[C@H]4[C@@H](O)C[C@]3(C)[C@]2(C(=O)CO)O1 (stereo partly drawn) 4.83%, CC(=O)N1CCN2C(=O)C1CCCC(=O)c1cc(C(C)C)ccc12 (stereo not drawn) -1.53%, CCOC(=O)Cc1c(C)nc(N)[nH]c1=O -3.45%, CCOC(=O)c1ncn2c1CN(C)C(=O)c1cc(F)ccc1-2 3.73%, COc1cc(SC)ccc1C(=O)NC(C)C -10.4%, COc1ccc(C(=O)NCCC2=CCCCC2)cc1[N+](=O)[O-] 4.28%, CC(C(=O)O)c1cccc(C(=O)c2ccccc2)c1 (stereo not drawn) -4.14%, Cc1oc2cc(O)cc(O)c2c(=O)c1-c1ccc2c(c1)OCCCO2 3.6%, O=C(O)c1ccc(OCCn2ccnc2)cc1 -2.71%, Cc1occc(=O)c1O -1.11%, CCOCCn1c(C(C)O)nc2ccccc21 (stereo not drawn) 2.97%, COc1cc2c(cc1OC)C(c1ccccc1)=NCC2 -2.91%, COc1ccc(C(=O)Nc2cccnc2)cc1C(=O)Nc1cccnc1 -8.6%, CCC12CN3CC(CC)(CN(C1)C31C(=O)N(C)c3ccc(C)cc31)C2=O (stereo not drawn) -6.86%, Cn1cnc2c1c(=O)n(CC(O)CO)c(=O)n2C (stereo not drawn) -8.16%, CC(=O)OCC(=O)[C@@]1(O)[C@H](C)C[C@H]2[C@@H]3CCC4=CC(=O)C=C[C@]4(C)[C@@]3(F)[C@@H](O)C[C@@]21C 1.44%, Cc1ccccc1NC(=O)NCCc1c[nH]c2ccccc12 -17.5%, Nc1nc2c(ncn2COCCO)c(=O)[nH]1 -1.55%, O=c1c2[nH]c3ccccc3c2ncn1CCC1=CCCCC1 3.7%, COc1ccc2nc(Nc3nc(CSc4ccc(C)cc4)cc(=O)[nH]3)nc(C)c2c1 -6.23%, COc1cc(CNCCc2ccccc2F)ccc1OCC(=O)N1CCCCC1 -0.54%, CC(O)Cn1cnc2c1c(=O)n(C)c(=O)n2C (stereo not drawn) 5.86%, O=C(NC(=S)N1CCCCC1)c1cccnc1 -0.676%, NS(=O)(=O)c1cc2c(cc1C(F)(F)F)NCNS2(=O)=O 2.13%, CC(C)C12CN3CC(C(C)C)(CN(C1)C3c1ccccc1O)C2=O (stereo not drawn) -7%, CC12CN3CC(C)(CN(C1)C3c1ccc(Br)cc1O)C2 (stereo not drawn) -9.4%, O=S(=O)(NCCCCCNS(=O)(=O)c1ccccc1)c1ccccc1 3.3%, CCOC(=O)/C=C1\NC(C)(C)Cc2cc(OC)c(OC)cc21 1.32%, CCc1ccc(/C=C2\SC(=S)N(CCC(=O)N3CCN(C)CC3)C2=O)cc1 4.06%, COC(=O)c1cc(=O)c2ccc(OC)cc2o1 -8.77%, Cc1cccc(C)c1NS(=O)(=O)c1ccc(NC(=O)c2ccc(Cl)c([N+](=O)[O-])c2)cc1 -9.74%, CC(=O)CCc1oc2ccccc2c1-c1ccccc1 3.27%, COc1ccc(Cc2noc(CN(C)CCN3CCc4ccccc4C3)n2)cc1OC 2.83%, CCOC(=O)COc1ccc2c(=O)c(-c3ccccc3)coc2c1 5.29%, NC(N)=NC(=O)c1nc(Cl)c(N)nc1N 24.7%, CC(C)C12CN3CC(C(C)C)(CN(C1)C31C(=O)Nc3ccccc31)C2=O (stereo not drawn) -8.73%, CC(=O)CSc1ncnc2c1cnn2-c1ccccc1 -1.45%, CCN(CC)CC(=O)Nc1c(C)cccc1C -0.181% and -3.09%, COc1ccc(C(=O)CC2OC(=O)c3c2ccc(OC)c3OC)cc1 (stereo not drawn) -3.39%, COc1ccc(/C=C\c2cc(OC)c(OC)cc2CC[N+](C)(C)C)cc1OC 29.6%, c1ccc2c(CC3=NCCN3)cccc2c1 -5.42%, O=C(N/N=C\c1cc([N+](=O)[O-])ccc1N1CCOCC1)c1ccccn1 -7.1%, CCOc1ccc(C(=O)N2CCCC2C(=O)O)cc1 (stereo not drawn) 3.33%, Cc1cn([C@H]2C=C[C@@H](CO)O2)c(=O)[nH]c1=O -3.8%, CC(=O)NS(=O)(=O)c1ccc(N)cc1 0.255%, O=C1CC(c2ccc(O)cc2)Oc2cc(O)cc(O)c21 (stereo not drawn) 4.91%, Cn1cc(CN2CCCC(CO)(Cc3cccc(Cl)c3)C2)cn1 (stereo not drawn) -3.54%, O=C(O)c1ccc(-c2ccc(O)c(F)c2)cc1 -3.36%, Cc1cc(=O)oc2c(CN(C)Cc3ccccc3)c(O)ccc12 -0.676%, CC(C)COC(=O)C1C(=O)CC(C)(O)C(C(=O)OCC(C)C)C1c1cccnc1 (stereo not drawn) 5.4%, CCCCOn1c(C)c(C(C)=O)c2c3no[n+]([O-])c3ccc21 -14.2%, NC(=O)C1CCCNC1 (stereo not drawn) 0.725%
